Read-outs that look alike come from different tables or passages of the source. These are yes or no findings as the source states them, for the method shown. In cells and extracts the contact can be indirect. Some entries that bind do so weakly or less than the wild type. For part of these data: Tags and fused reporters may be left off the sequences shown. One block for each molecule: values may come before it.
Key:
[1] = target: T1, GST-2.SH3 domain of CD2AP (mouse) (UniProt Q9JLQ0); assay: pull-down; GST fusions of CD2AP (NH2 terminus, individual SH3 domains) or GST alone; lysates of transiently transfected HEK293T cells; immunoblotting; only the target purified
T1 sequence: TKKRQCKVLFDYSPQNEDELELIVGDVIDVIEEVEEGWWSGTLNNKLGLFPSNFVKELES

Protein sequences, listed by entry. Tags and fused reporters are not part of them.
UniProt Q02248: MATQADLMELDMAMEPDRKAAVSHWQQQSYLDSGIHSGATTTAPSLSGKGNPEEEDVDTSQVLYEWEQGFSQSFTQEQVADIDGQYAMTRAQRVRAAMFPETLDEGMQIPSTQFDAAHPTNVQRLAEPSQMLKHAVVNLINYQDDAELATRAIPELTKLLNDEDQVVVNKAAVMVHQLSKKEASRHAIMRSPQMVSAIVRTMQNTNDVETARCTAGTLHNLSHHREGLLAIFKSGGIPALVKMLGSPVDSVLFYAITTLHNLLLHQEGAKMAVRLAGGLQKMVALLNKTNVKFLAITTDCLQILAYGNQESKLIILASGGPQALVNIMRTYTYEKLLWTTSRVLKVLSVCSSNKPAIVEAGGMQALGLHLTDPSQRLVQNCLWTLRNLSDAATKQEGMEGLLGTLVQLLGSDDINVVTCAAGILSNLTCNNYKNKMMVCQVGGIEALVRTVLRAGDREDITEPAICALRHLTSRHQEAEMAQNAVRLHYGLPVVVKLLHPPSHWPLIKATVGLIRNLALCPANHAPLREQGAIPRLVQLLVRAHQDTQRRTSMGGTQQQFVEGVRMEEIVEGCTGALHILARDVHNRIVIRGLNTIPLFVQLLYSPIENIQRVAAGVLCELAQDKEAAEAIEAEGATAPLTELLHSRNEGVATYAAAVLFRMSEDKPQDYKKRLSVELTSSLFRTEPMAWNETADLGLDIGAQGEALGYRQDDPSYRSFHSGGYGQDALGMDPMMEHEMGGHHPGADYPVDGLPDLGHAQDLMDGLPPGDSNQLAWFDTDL
UniProt P27782: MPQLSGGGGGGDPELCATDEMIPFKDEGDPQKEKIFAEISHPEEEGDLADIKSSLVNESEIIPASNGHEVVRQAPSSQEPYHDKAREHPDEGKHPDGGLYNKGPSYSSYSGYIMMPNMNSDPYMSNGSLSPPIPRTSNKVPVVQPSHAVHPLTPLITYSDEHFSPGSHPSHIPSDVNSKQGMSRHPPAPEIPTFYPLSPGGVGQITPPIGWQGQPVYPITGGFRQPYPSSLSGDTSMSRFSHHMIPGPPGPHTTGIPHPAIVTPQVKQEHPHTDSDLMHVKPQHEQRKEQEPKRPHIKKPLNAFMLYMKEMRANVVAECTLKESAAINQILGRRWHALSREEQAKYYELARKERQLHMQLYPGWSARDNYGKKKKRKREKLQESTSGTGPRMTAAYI

[2] = target: T2, GST-tagged NH2-terminus (amino acids 1–330) of mouse CD2AP (mouse) (UniProt Q9JLQ0); assay: as above
T2 sequence: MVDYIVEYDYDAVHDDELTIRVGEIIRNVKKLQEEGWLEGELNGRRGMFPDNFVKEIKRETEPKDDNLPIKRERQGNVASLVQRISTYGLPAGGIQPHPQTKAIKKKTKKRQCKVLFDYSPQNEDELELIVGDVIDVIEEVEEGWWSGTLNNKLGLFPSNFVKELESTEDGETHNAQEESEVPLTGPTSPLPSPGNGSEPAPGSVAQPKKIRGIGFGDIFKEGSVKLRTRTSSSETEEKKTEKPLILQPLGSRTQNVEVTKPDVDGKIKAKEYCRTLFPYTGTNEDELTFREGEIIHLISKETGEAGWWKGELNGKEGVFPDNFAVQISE

[3] = target: endogenous CD2AP of HEK293T cells (human (endogenous in HEK293T)) (UniProt Q9Y5K6); assay: co-IP; endogenous CD2AP precipitated with CD2AP 1774 and 1764 antibodies (rabbit IgG as control) from HEK293T cells transiently transfected with Flag-tankyrase 2, tankyrase 1 or Flag-ANK
[4] = target: active β-catenin of mouse podocytes (mouse (endogenous in mouse podocytes)) (UniProt Q02248); assay: proximity ligation; Duolink in situ PLA with active β-catenin and LEF1 antibodies in cultured WT and CD2AP−/− mouse podocytes, without and with XAV939
[5] = target: T1, GST-2.SH3 domain of CD2AP (mouse); assay: pull-down; GST fusions of CD2AP (NH2 terminus, individual SH3 domains) or GST alone; lysates of transiently transfected HEK293T cells; immunoblotting; only the target purified; remark: listed apart in the source
[6] = target: T2, GST-tagged NH2-terminus (amino acids 1–330) of mouse CD2AP (mouse); assay: as above; remark: listed apart in the source
[7] = target: endogenous CD2AP of mouse kidney (mouse (endogenous in mouse kidney)) (UniProt Q9JLQ0); assay: co-IP; endogenous CD2AP precipitated with CD2AP 1774 antibody (rabbit IgG as control) from mouse kidney and isolated rat glomerular lysates; endogenous tankyrases detected by immunoblotting

Molecule: tankyrase 1 transiently overexpressed in HEK293T cells (from UniProt O95271 1-1327) (enzyme)
- binding [1]: binds
- binding [2]: binds
- binding [3]: binds

Molecule: LEF1 of mouse podocytes (from UniProt P27782 1-397)
- binding [4]: binds

B1: Flag-tagged tankyrase 2 transiently overexpressed in HEK293T cells (enzyme, UniProt Q9H2K2 1-1166)
chain: MSGRRCAGGGAACASAAAEAVEPAARELFEACRNGDVERVKRLVTPEKVNSRDTAGRKSTPLHFAAGFGRKDVVEYLLQNGANVQARDDGGLIPLHNACSFGHAEVVNLLLRHGADPNARDNWNYTPLHEAAIKGKIDVCIVLLQHGAEPTIRNTDGRTALDLADPSAKAVLTGEYKKDELLESARSGNEEKMMALLTPLNVNCHASDGRKSTPLHLAAGYNRVKIVQLLLQHGADVHAKDKGDLVPLHNACSYGHYEVTELLVKHGACVNAMDLWQFTPLHEAASKNRVEVCSLLLSYGADPTLLNCHNKSAIDLAPTPQLKERLAYEFKGHSLLQAAREADVTRIKKHLSLEMVNFKHPQTHETALHCAAASPYPKRKQICELLLRKGANINEKTKEFLTPLHVASEKAHNDVVEVVVKHEAKVNALDNLGQTSLHRAAYCGHLQTCRLLLSYGCDPNIISLQGFTALQMGNENVQQLLQEGISLGNSEADRQLLEAAKAGDVETVKKLCTVQSVNCRDIEGRQSTPLHFAAGYNRVSVVEYLLQHGADVHAKDKGGLVPLHNACSYGHYEVAELLVKHGAVVNVADLWKFTPLHEAAAKGKYEICKLLLQHGADPTKKNRDGNTPLDLVKDGDTDIQDLLRGDAALLDAAKKGCLARVKKLSSPDNVNCRDTQGRHSTPLHLAAGYNNLEVAEYLLQHGADVNAQDKGGLIPLHNAASYGHVDVAALLIKYNACVNATDKWAFTPLHEAAQKGRTQLCALLLAHGADPTLKNQEGQTPLDLVSADDVSALLTAAMPPSALPSCYKPQVLNGVRSPGATADALSSGPSSPSSLSAASSLDNLSGSFSELSSVVSSSGTEGASSLEKKEVPGVDFSITQFVRNLGLEHLMDIFEREQITLDVLVEMGHKELKEIGINAYGHRHKLIKGVERLISGQQGLNPYLTLNTSGSGTILIDLSPDDKEFQSVEEEMQSTVREHRDGGHAGGIFNRYNILKIQKVCNKKLWERYTHRRKEVSEENHNHANERMLFHGSPFVNAIIHKGFDERHAYIGGMFGAGIYFAENSSKSNQYVYGIGGGTGCPVHKDRSCYICHRQLLFCRVTLGKSFLQFSAMKMAHSPPGHHSVTGRPSVNGLALAEYVIYRGEQAYPEYLITYQIMRPEGMVDG
- binding [5]: binds
- binding [6]: binds
- binding [3]: binds

More lines, now with the values ahead:

- binding [7]: binds
B2: tankyrase 2 endogenously expressed in mouse kidneys (enzyme, UniProt Q3UES3 1-1166)
chain: MSGRRCAGGGAACASAGAEAVEPSARELFEACRNGDVERVKRLVTPEKVNSRDTAGRKSTPLHFAAGFGRKDVVEYLLQNGANVQARDDGGLIPLHNACSFGHAEVVNLLLQHGADPNARDNWNYTPLHEAAIKGKIDVCIVLLQHGAEPTIRNTDGRTALDLADPSAKAVLTGDYKKDELLESARSGNEEKMMALLTPLNVNCHASDGRKSTPLHLAAGYNRVKIVQLLLHHGADVHAKDKGDLVPLHNACSYGHYEVTELLVKHGACVNAMDLWQFTPLHEAASKNRIEVCSLLLSYGADPTLLNCHNKSAIDLAPTAQLKERLSYEFKGHSLLQAAREADVTRIKKHLSLEMVNFKHPQTHETALHCAAASPYPKRKQICELLLRKGANTNEKTKEFLTPLHVASENAHNDVVEVVVKHEAKVNALDSLGQTSLHRAAHCGHLQTCRLLLSYGCDPNIISLQGFTALQMGNENVQQLLQEGASLGHSEADRQLLEAAKAGDVETVKKLCTVQSVNCRDIEGRQSTPLHFAAGYNRVSVVEYLLQHGADVHAKDKGGLVPLHNACSYGHYEVAELLVKHGAVVNVADLWKFTPLHEAAAKGKYEICKLLLQHGADPTKKNRDGNTPLDLVKDGDTDIQDLLRGDAALLDAAKKGCLARVKKLSSPDNVNCRDTQGRHSTPLHLAAGYNNLEVAEYLLQHGADVNAQDKGGLIPLHNAASYGHVDVAALLIKYNACVNATDKWAFTPLHEAAQKGRTQLCALLLAHGADPTLKNQEGQTPLDLVSADDVSALLTAAMPPSALPTCYKPQVLSGVRGPGATADALSSGPSSPSSLSAASSLDNLSGSFSELSAVVSSSAAEGATGLQRKEDSGIDFSITQFIRNLGLEHLMDIFEREQITLDVLVEMGHKELKEIGINAYGHRHKLIKGVERLISGQQGLNPYLTLNNSGSGTILIDLSPDDKEFQSVEEEMQSTVREHRDGGHAGGVFNRYNILKIQKVCNKKLWERYTHRRKEVSEENHNHANERMLFHGSPFVNAIIHKGFDERHAYIGGMFGAGIYFAENSSKSNQYVYGIGGGTGCPIHKDRSCYICHRQLLFCRVTLGKSFLQFSAMKMAHSPPGHHSVTGRPSVNGLALAEYVIYRGEQAYPEYLITYQIVRPEGMVDG

- binding [7]: binds
B3: tankyrase 1 endogenously expressed in mouse kidneys (enzyme, UniProt Q6PFX9 1-1320)
chain: MAASRRSQHHHHHHQQQLQPAPGASAPPPPPPPPLSPGLAPGPTPASPTAGGLAPFASPRHGLALPEGDGSRDPPDRPRSPDPVDGAVCTVAAPAAVPAASAAVGVAPTPAGGGGGGGNNSASSASSPTSSSSSSPSSPGSSLAESPEAAGVGSTATLGAGAAGLGPGVPAVSGALRELLEACRNGDVSRVKRLVDAANVNAKDMAGRKSSPLHFAAGFGRKDVVEHLLQMGANVHARDDGGLIPLHNACSFGHAEVVSLLLCQGADPNARDNWNYTPLHEAAIKGKIDVCIVLLQHGADPNIRNTDGKSALDLADPSAKAVLTGEYKKDELLEAARSGNEEKLMALLTPLNVNCHASDGRKSTPLHLAAGYNRVRIVQLLLQHGADVHAKDKGGLVPLHNACSYGHYEVTELLLKHGACVNAMDLWQFTPLHEAASKNRVEVCSLLLSHGADPTLVNCHGKSAVDMAPTPELRERLTYEFKGHSLLQAAREADLAKVKKTLALEIINFKQPQSHETALHCAVASLHPKRKQVAELLLRKGANVNEKNKDFMTPLHVAAERAHNDVMEVLHKHGAKMNALDSLGQTALHRAALAGHLQTCRLLLSYGSDPSIISLQGFTAAQMGNEAVQQILSESTPMRTSDVDYRLLEASKAGDLETVKQLCSPQNVNCRDLEGRHSTPLHFAAGYNRVSVVEYLLHHGADVHAKDKGGLVPLHNACSYGHYEVAELLVRHGASVNVADLWKFTPLHEAAAKGKYEICKLLLKHGADPTKKNRDGNTPLDLVKEGDTDIQDLLRGDAALLDAAKKGCLARVQKLCTPENINCRDTQGRNSTPLHLAAGYNNLEVAEYLLEHGADVNAQDKGGLIPLHNAASYGHVDIAALLIKYNTCVNATDKWAFTPLHEAAQKGRTQLCALLLAHGADPTMKNQEGQTPLDLATADDIRALLIDAMPPEALPTCFKPQATVVSASLISPASTPSCLSAASSIDNLTGPLTDLAVGGASNAGDGAAGAERKEGEVAGLDMNISQFLKSLGLEHLRDIFETEQITLDVLADMGHEELKEIGINAYGHRHKLIKGVERLLGGQQGTNPYLTFHCVNQGTILLDLAPEDKEYQSVEEEMQSTIREHRDGGNAGGIFNRYNVIRIQKVVNKKLRERFCHRQKEVSEENHNHHNERMLFHGSPFINAIIHKGFDERHAYIGGMFGAGIYFAENSSKSNQYVYGIGGGTGCPTHKDRSCYICHRQMLFCRVTLGKSFLQFSTMKMAHAPPGHHSVIGRPSVNGLAYAEYVIYRGEQAYPEYLITYQIMKPEAPSQTATAAEQKT

— article PMC4973355
